Laboratory results as given in US8193378B2, “2H-chromene compound and derivative thereof” (Astellas Pharma Inc., priority 2008, dated 2012).
Some of these results come from one statement about several compounds together.

Test: Increase in lung weight in rats (Test Example 3)
Format: in vivo, rat
Conditions: oral, dose of 1 mg/kg, 10% or more = positive

Compound | increased lung weight
CCCc1ccc(COc2ccc3c(c2)OCC(CN2CCC(C(=O)O)C2)=C3)c(OC)c1 (centres unmarked) [Ex 31] | less than 10%
O=C(O)C1CN(CC2=Cc3ccc(OCc4cc(-c5ccccc5)c(Br)s4)cc3OC2)C1 [Ex 43] | less than 10%
Cl.O=C(O)C1CCN(CC2=Cc3ccc(OCc4ccc(C(F)(F)F)cc4C(F)(F)F)cc3OC2)C1 (centres unmarked) [Ex 44] | less than 10%
Cl.O=C(O)C1CCN(CC2=Cc3c(F)cc(OCc4ccc(C(F)(F)F)cc4C(F)(F)F)cc3OC2)C1 (centres unmarked) [Ex 45] | less than 10%
CCc1sc(COc2cc(F)c3c(c2)OCC(CN2CCC(C(=O)O)C2)=C3)cc1-c1ccccc1 (centres unmarked) [Ex 56] | less than 10%
O=C(O)C1CCN(CC2=Cc3c(F)cc(OCc4ccc(-c5ccccc5)c(C(F)(F)F)c4)cc3OC2)C1 (centres unmarked) [Ex 62] | less than 10%
CC1(C(=O)O)CCN(CC2=Cc3c(F)cc(OCc4cc(-c5ccccc5)c(C(F)(F)F)s4)cc3OC2)C1 (centres unmarked) [Ex 66] | less than 10%
CC1CN(CC2=Cc3c(F)cc(OCc4cc(-c5ccccc5)c(C(F)(F)F)s4)cc3OC2)CC1C(=O)O (centres unmarked) [Ex 69] | less than 10%
O=C(O)C1(F)CCN(CC2=Cc3c(F)cc(OCc4cc(-c5ccccc5)c(C(F)(F)F)s4)cc3OC2)C1 (centres unmarked) [Ex 74] | less than 10%
CC1(C(=O)O)CN(CC2=Cc3c(F)cc(OCc4cc(-c5ccccc5)c(C(F)(F)F)s4)cc3OC2)C1 [Ex 81] | less than 10%
O=C(O)C1=CCCN(CC2=Cc3c(F)cc(OCc4ccc(C(F)(F)F)cc4C(F)(F)F)cc3OC2)C1 [Ex 85] | less than 10%
CC1(C(=O)O)CCN(CC2=Cc3c(F)cc(OCc4ccc(-n5cccc5)c(C(F)(F)F)c4)cc3OC2)C1 (centres unmarked) [Ex 89] | less than 10%
O=C(O)[C@H]1CCN(CC2=Cc3c(F)cc(OCc4ccc(-n5cccc5)c(C(F)(F)F)c4)cc3OC2)C1 [Ex 109] | less than 10%
CC1(C(=O)O)CN(CC2=Cc3ccc(OCc4ccc(-n5cccc5)c(C(F)(F)F)c4)cc3OC2)C1 [Ex 116] | less than 10%
Cc1c(OCc2ccc(C(F)(F)F)cc2C(F)(F)F)ccc2c1OCC(CN1CCC(C(=O)O)C1)=C2.Cl (centres unmarked) [Ex 137] | less than 10%
Cl.O=C(O)C1=CCCN(CC2=Cc3c(F)cc(OCc4ccc(OC(CF)CF)c(Cl)c4)cc3OC2)C1 [Ex 143] | less than 10%
C[C@H](Oc1ccc(COc2ccc3c(c2)OCC(CN2CCC=C(C(=O)O)C2)=C3)cc1Cl)C(F)(F)F.Cl [Ex 149] | less than 10%
CC(C)Oc1ccc(COc2ccc3c(c2)OCC(CN2CCC=C(C(=O)O)C2)=C3)cc1Cl.Cl [Ex 151] | less than 10%
CS(=O)(=O)NC(=O)[C@@H]1CCCN(CC2=Cc3c(F)cc(OCc4ccc(OC(CF)CF)c(C(F)(F)F)c4)cc3OC2)C1.Cl [Ex 152] | less than 10%
Cl.O=C(O)[C@@H]1CCCN(CC2=Cc3ccc(OCc4ccc(OCC(F)(F)F)c(C(F)(F)F)c4)cc3OC2)C1 [Ex 160] | less than 10%
Cl.O=C(O)C1CCN(CC2=Cc3ccc(OCc4ccc(OCC(F)(F)F)c(C(F)(F)F)c4)cc3OC2)CC1 [Ex 171] | less than 10%
CC(C)Oc1ccc(COc2ccc3c(c2)OCC(CN2CCC=C(C(=O)O)C2)=C3)cc1C(F)(F)F.Cl [Ex 178] | less than 10%
Cl.O=C(O)C1=CCN(CC2=Cc3ccc(OCc4ccc(OC(CF)CF)c(Cl)c4)cc3OC2)CC1 [Ex 181] | less than 10%
C[C@H](Oc1ncc(COc2ccc3c(c2)OCC(CN2CCC=C(C(=O)O)C2)=C3)cc1Cl)C(F)(F)F.Cl [Ex 183] | less than 10%
Cl.O=C(O)[C@@H]1CCCN(CC2=Cc3c(F)cc(OCc4ccc(OC(CF)CF)c(C(F)(F)F)c4)cc3OC2)C1 [Ex 212] | less than 10%
Cl.O=C(O)C1=CCCN(CC2=Cc3ccc(OCc4ccc(C5CCCC5)c(C(F)(F)F)c4)cc3OC2)C1 [Ex 216] | less than 10%
Cl.O=C(O)[C@@H]1CCCN(CC2=Cc3c(F)cc(OCc4ccc(OC(CF)CF)c(Cl)c4)cc3OC2)C1 [Ex 223] | less than 10%
Cl.O=C(O)[C@H]1CCCN(CC2=Cc3c(F)cc(OCc4ccc(OC(CF)CF)c(C(F)(F)F)c4)cc3OC2)C1 [Ex 230] | less than 10%
Cl.O=C(O)[C@H]1CCCN(CC2=Cc3c(F)cc(OCc4ccc(OCC(F)(F)F)c(C(F)(F)F)c4)cc3OC2)C1 [Ex 236] | less than 10%
